From article doi:10.1101/2019.12.19.883322
No constants are given. Whether binding was seen depends on the method and setting. In cells and extracts the contact can be indirect. Some binding calls cover weakened binding; strength is not graded here.

Target: T1, receptor interacting protein kinase 1 (RIPK1) (mouse (endogenous in ventricular myocardium)), Q60855
T1 chain: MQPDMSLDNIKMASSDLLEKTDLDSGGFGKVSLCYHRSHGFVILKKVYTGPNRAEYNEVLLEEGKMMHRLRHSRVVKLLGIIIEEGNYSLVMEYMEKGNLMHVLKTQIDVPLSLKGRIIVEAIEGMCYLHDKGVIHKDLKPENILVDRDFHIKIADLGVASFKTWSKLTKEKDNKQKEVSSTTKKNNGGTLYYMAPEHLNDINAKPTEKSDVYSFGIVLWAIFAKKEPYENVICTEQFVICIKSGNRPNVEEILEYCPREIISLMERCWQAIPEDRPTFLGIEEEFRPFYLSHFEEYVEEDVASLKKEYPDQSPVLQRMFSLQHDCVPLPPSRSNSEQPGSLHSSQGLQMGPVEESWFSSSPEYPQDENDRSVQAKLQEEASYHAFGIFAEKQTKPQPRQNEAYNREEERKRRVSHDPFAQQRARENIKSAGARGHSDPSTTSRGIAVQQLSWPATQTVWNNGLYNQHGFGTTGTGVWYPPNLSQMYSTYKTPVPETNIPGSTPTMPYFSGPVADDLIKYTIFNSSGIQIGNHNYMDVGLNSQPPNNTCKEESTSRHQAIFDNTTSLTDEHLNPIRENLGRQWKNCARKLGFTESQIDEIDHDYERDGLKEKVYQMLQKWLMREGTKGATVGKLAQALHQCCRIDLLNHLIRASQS
Test: co-IP
Details: remark: other sources report otherwise

B1: RIPK3, Q9QZL0 1-486 (protein)
chain: MSSVKLWPTGASAVPLVSREELKKLEFVGKGGFGVVFRAHHRTWNHDVAVKIVNSKKISWEVKAMVNLRNENVLLLLGVTEDLQWDFVSGQALVTRFMENGSLAGLLQPECPRPWPLLCRLLQEVVLGMCYLHSLNPPLLHRDLKPSNILLDPELHAKLADFGLSTFQGGSQSGSGSGSGSRDSGGTLAYLDPELLFDVNLKASKASDVYSFGILVWAVLAGREAELVDKTSLIRETVCDRQSRPPLTELPPGSPETPGLEKLKELMIHCWGSQSENRPSFQDCEPKTNEVYNLVKDKVDAAVSEVKHYLSQHRSSGRNLSAREPSQRGTEMDCPRETMVSKMLDRLHLEEPSGPVPGKCPERQAQDTSVGPATPARTSSDPVAGTPQIPHTLPFRGTTPGPVFTETPGPHPQRNQGDGRHGTPWYPWTPPNPMTGPPALVFNNCSEVQIGNYNSLVAPPRTTASSSAKYDQAQFGRGRGWQPFHK
binding: binds
